In this test the target is T1, GFP-VAPA (human) (UniProt Q9P0L0).
T1 sequence: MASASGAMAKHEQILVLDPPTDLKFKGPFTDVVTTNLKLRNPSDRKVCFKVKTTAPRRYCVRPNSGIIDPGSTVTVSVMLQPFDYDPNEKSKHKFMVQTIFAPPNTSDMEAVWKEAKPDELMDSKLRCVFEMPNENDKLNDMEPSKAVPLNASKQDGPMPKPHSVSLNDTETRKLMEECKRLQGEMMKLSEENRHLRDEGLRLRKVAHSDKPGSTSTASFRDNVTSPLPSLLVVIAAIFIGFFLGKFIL
Description: co-IP; from HEK293T cells expressing the tagged proteins; done as described previously (Cabukusta et al., 2020).

Results are given in words; binding and its absence hold for the method and conditions named. Binding seen in cells or lysates may run through a third protein. Binding can be weak; no strength is given. Tags and fused reporters may be left off the sequences shown.

As for Scarlet-ORP9 iso.2 (mouse), the binding result is “binds”.
